Laboratory results: article PMC4242682
No constants are given. Whether binding was seen depends on the method and setting. Some binding calls cover weakened binding; strength is not graded here.

Tests used:
Cpn60β1 [1] = target: Cpn60β1 (UniProt C0Z361); test: condition: only with Cpn10(1) alone or G32A alone as the co-chaperonin (25 µM); 50 µM Cpn60β1 monomer; native gel or EMSA; as a5, but with 25 µM Cpn10(1) alone or G32A alone as the co-chaperonin; both purified
Cpn60β1 [2] = target: Cpn60β1 (UniProt C0Z361); test: native gel or EMSA; 50 µM Cpn60β1 monomer with 25 µM wild type Cpn20 (or the mixture of G32A and Cpn10(1)), 5 mM ATP, 10 mM MgCl2, 50 mM Tris-HCl pH 8, 0.3 M NaCl, 16 mM KCl, 2 mM DTT; 5 min room temperature, 1 h 30°C; 6% native gel; monomer to oligomer; both purified

binding (Cpn60β1 [1]): no binding
binding (Cpn60β1 [2]): binds
B1: Cpn60β1 (protein, UniProt C0Z361 30-597)
chain: SSSFGRTQSIAQRKARFPKIYAAKQLHFNKDGTAIKKLQAGVNKLADLVGVTLGPKGRNVVLESKYGSPRIVNDGVTVAREVELEDPVENIGAKLVRQAASKTNDLAGDGTTTSVVLAQGLIAEGVKVVAAGANPVLITRGIEKTTKALVAELKKMSKEVEDSELADVAAVSAGNNYEVGNMIAEAMAKVGRKGVVTLEEGKSAENSLYVVEGMQFDRGYISPYFVTDSEKMCAEYENCKLFLVDKKITNARDIISILEDAIKGGYPLLIIAEDIEQEPLATLVVNKLRGTIKVAALKAPGFGERKSQYLDDIAALTGATVIREEVGLQLEKVGPEVLGNAGKVVLTKDTTTIVGDGSTEEVVKKRVEQIKNLIEAAEQDYEKEKLNERIAKLSGGVAVIQVGAQTETELKEKKLRVEDALNATKAAVEEGIVVGGGCTLLRLASKVDAIKETLANDEEKVGADIVKKALSYPLKLIAKNAGVNGSVVSEKVLSSDNPKHGYNAATGKYEDLMAAGIIDPTKVVRCCLEHASSVAKTFLMSDCVVVEIKEPESAAPAGNPMDNSGYGF
